The assay can be described thus: qHTS Assay for Lipid Storage Modulators in Drosophila S3 Cells.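 For cell number change: cells counted by Cell Tracker Red CMTPX staining in the red channel.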 The conditions noted are these: BODIPY lipid droplet fluorescence, 18-24 h; for cell number change: measured here: cell count max response, cells fed with added oleic acid. An outline of the steps: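 Drosophila S3 cells loaded with oleic acid (400 uM, as added) and compounds at several concentrations; lipid droplets imaged by 488-nm laser-scanning cytometry, 500–530 nm intensity and object ratio to cell channel. Percent activity normalized to 20 uM Triacsin C.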
A general note: qHTS replaces the single test concentration by a dilution series.

[1] abbreviates: measured here: cell number channel AC50, cells fed with added oleic acid.
[2] abbreviates: measured here: lipid fluorescence (Fed channel) AC50, cells fed with added oleic acid.

This is one part of the list. Further columns of the screen follow, without active or inactive calls. Most of these compounds were active or inconclusive in the main read-out, so they are no random draw. Potencies come from curve fits of mixed quality, noted in brackets.

As a reminder, the AC50 is the concentration at which the activity in the assay is half-maximal. As to `O=C(COC(=O)Cc1cccc(C(F)(F)F)c1)Nc1ccc2[nH]c(=O)[nH]c2c1`, the cell number change is -5.12%. Besides, the AC50 under setting [1] was 0.058 µM [falling, full curve, poor fit]. Further, the AC50 under setting [2] was 0.651 µM [falling, full curve]. `CCOc1cc(/C=C(\C#N)C(=O)Nc2cccc(C(=O)O)c2)ccc1OCc1ccc(Br)cc1`: the cell number change is 26.9%. Also, the half-maximal activity concentration (AC50) under setting [2] is 1.03 µM [rising, partial curve]. Take `CSCCC(NC(N)=O)C(=O)N(C)CC(=O)Nc1cc(C)ccc1C` (stereo unspecified): the cell number change worked out at 36.9%. The AC50 under setting [1] was 4.11 µM [rising, partial curve]. In addition, under setting [2], the AC50 is 5.8 µM [rising, full curve]. On to `C=CCn1c(=O)/c(=C\c2ccsc2)s/c1=C(/C#N)C(=O)NCCN1CCOCC1`, for which the concentration at half-maximal activity (AC50) under setting [2] was 1.16 µM [rising, full curve]. For `CCOC(CCNC(=O)c1cn(-c2cccc(C)n2)cn1)OCC`, the cell number change is 9.01%. The AC50 under setting [2] was 0.00461 µM [rising, full curve, poor fit]. `Cc1ccc(C(CNC(=O)c2ccco2)N2CCN(C)CC2)cc1` (stereo unspecified): the cell number change was -1.65%. Moreover, the AC50 under setting [2] was 0.291 µM [rising, full curve, poor fit]. In the case of `COc1ccccc1NC(=O)NC(=O)c1ccccc1`, the cell number change came out at 2.89%. Also, under setting [2], the concentration at half-maximal activity (AC50) was 3.66 µM [rising, full curve]. For the molecule `COCCNc1nc2c(c(=O)n(Cc3cccc(Br)c3)c(=O)n2C)n1C`, the cell number change stood at 21.4%. Moreover, under setting [2], the concentration at half-maximal activity (AC50) is 1.46 µM [rising, full curve, poor fit].

As to `COc1ccc(NC(=O)c2cc3c(=O)n(C)c4ccccc4c3n2C)cc1OC`, the AC50 by setting is: under setting [1], 0.731 µM [rising, full curve]; under setting [2], 0.58 µM [rising, full curve]. `COc1cccc(/C=N/Nc2ccnc(=O)[nH]2)c1O`: the cell number change was 13.5%. Besides, under setting [1], the AC50 is 6.51 µM [rising, single point]. In addition, the AC50 under setting [2] is 6.51 µM [rising, single point]. Consider `O=C(CSC(=S)N1CCCC1)N1CCN(S(=O)(=O)c2ccccc2F)CC1`, for which the cell number change is 22.8%. As for `CCOc1ccc(S(=O)(=O)NCCC(=O)OCC(=O)c2ccc(NC(C)=O)cc2)cc1`, the cell number change stood at 2.6%. Also, the concentration at half-maximal activity (AC50) under setting [1] was 0.146 µM [falling, full curve, poor fit]. The half-maximal activity concentration (AC50) under setting [2] is 0.13 µM [falling, full curve, poor fit]. Turning to `Cn1nccc1C(=O)OCC(=O)Nc1ccccc1Cl`, the cell number change is -24.2%. Moreover, the AC50 under setting [2] was 4.11 µM [falling, full curve]. On to `CCOc1cc(/C=C2\SC(=S)N(NC(=O)c3cccnc3)C2=O)ccc1O`, for which the cell number change turned out to be 14.6%. On to `COc1ccc(S(=O)(=O)NCC2CCCN(Cc3cccnc3)C2)cc1` (stereo unspecified), for which the cell number change was determined as 32.4%. Moreover, the AC50 under setting [1] is 0.0651 µM [rising, full curve, poor fit]. Besides, the AC50 under setting [2] was 0.231 µM [rising, full curve, poor fit]. Regarding `Cc1cccc(NC(=O)CSc2nc(C)c(CC(=O)c3ccc(Br)cc3)c(C)c2C#N)c1C`, the cell number change worked out at 7.36%. Moreover, under setting [2], the concentration at half-maximal activity (AC50) was 3.66 µM [rising, partial curve].

On to `O=C(NCCCC(=O)N1CCOCC1)c1cccnc1`, for which the cell number change was -4.27%.

Turning to `Cc1ccc(C)c(NC(=O)/C(C#N)=C/c2cn(CC(=O)NCc3ccco3)c3ccccc23)c1`, the cell number change is -11.9%. Further, the AC50 under setting [2] is 9.2 µM [falling, partial curve, poor fit]. Consider `O=C(NCC1CCCO1)c1ccc2c(c1)C(=O)N(c1cccc([N+](=O)[O-])c1)C2=O` (stereo unspecified), for which the AC50 under setting [2] is 29.1 µM [falling, single point]. Turning to `CC1=CC(C)(C)N2C(=O)C3(SCC(=O)N3c3ccc(O)cc3)c3cc(C)cc1c32` (stereo unspecified), the cell number change is -23.8%. The AC50 under setting [2] was 0.411 µM [rising, full curve]. Consider `CC(OC(=O)c1nc(Cl)ccc1Cl)C(=O)Nc1ccc2c(c1)OCCO2` (stereo unspecified), for which the cell number change stood at 3.21%. Consider `CCCCN(C(=O)CSCC(=O)Nc1ccc(OC)cc1)c1c(N)n(CCC)c(=O)[nH]c1=O`, for which the cell number change is -13.4%. Besides, under setting [2], the concentration at half-maximal activity (AC50) is 0.0058 µM [falling, full curve, poor fit]. Regarding `CC1CCCN(C(=O)c2ccc3c(c2)OCO3)C1` (stereo unspecified), the cell number change was -13.1%. Further, the AC50 under setting [2] was 2.31 µM [rising, single point]. As to `Cc1c(C(=O)N2CCOCC2)[nH]c2ccc(OCc3ccccc3)cc12`, the cell number change is -21%. `O=C(Nc1c2c(nn1-c1ccc(Cl)cc1)CS(=O)(=O)C2)c1ccc2c(c1)OCO2`: the AC50 under setting [1] was 6.51 µM [rising, single point] and the half-maximal activity concentration (AC50) under setting [2] is 6.51 µM [rising, partial curve, poor fit].

As for `CN1C[C@@H]2C(c3ccccc3)C3(c4cccnc4)CC2(C3)[C@H]1c1ccccc1` (stereo partly specified), the cell number change is 19.5%. In addition, the AC50 under setting [2] was 9.2 µM [rising, partial curve, poor fit].

With `CCCC(=O)N1CCN(c2nc3ccc(Br)cc3s2)CC1`, the cell number change turned out to be 4.25%. `CSCC[C@H](NC(=O)OC(C)(C)C)c1nnc(SCc2ccc(F)cc2)o1`: the cell number change is 42.8%. Further, the AC50 under setting [1] is 29.1 µM [rising, single point]. The AC50 under setting [2] is 18.4 µM [rising, partial curve]. Regarding `Cc1nnc(SCC(=O)Nc2c(Cl)cccc2Cl)n(N)c1=O`, the cell number change is -25.3%. Regarding `CC(C)Sc1snnc1-c1ccccc1`, the cell number change worked out at 16.1%. For the same molecule, under setting [2], the half-maximal activity concentration (AC50) is 0.13 µM [rising, full curve, poor fit]. For `O=S(=O)(NCc1ccc(F)cc1)c1cc(Br)ccc1Br`, the cell number change was -27.7%. Moreover, the concentration at half-maximal activity (AC50) under setting [1] is 2.59 µM [falling, single point]. For the molecule `CCOC(=O)c1oc2ccc(S(=O)(=O)n3nc(-c4ccc(Cl)cc4)cc3N)cc2c1C`, the cell number change was -17.9%. In the case of `COc1ccc(NC(=O)CCNC(=O)c2ccco2)cc1S(=O)(=O)N(C)C`, the cell number change worked out at 2.94%. For the same molecule, the AC50 under setting [2] is 29.1 µM [rising, single point].

For the molecule `N=C1C(c2nc3ccccc3s2)=C(O)CN1NC(=O)c1ccc([N+](=O)[O-])cc1`, the cell number change is -1.24%.

As to `N=c1c2c(n(Cc3ccc(Cl)c(Cl)c3)c3c1CCC3)CCCC2`, the cell number change was -70.2%. Moreover, the concentration at half-maximal activity (AC50) under setting [1] is 14.6 µM [falling, partial curve]. In addition, the half-maximal activity concentration (AC50) under setting [2] is 13 µM [falling, partial curve]. With `COc1cc(/C=N\NC(=O)c2sc(N)nc2C)cc(OC)c1OC`, the cell number change is -14.8%. Further, the AC50 under setting [1] was 0.092 µM [falling, full curve, poor fit]. Besides, the half-maximal activity concentration (AC50) under setting [2] is 29.1 µM [rising, single point]. `CCn1c(CNc2nc(-c3ccccc3)cs2)nnc1SCC(=O)NCc1ccccc1`: the concentration at half-maximal activity (AC50) under setting [2] is 23.1 µM [falling, partial curve, poor fit].

Turning to `O=S(=O)(c1ccc(F)cc1)N1CCC(c2nc3ccccc3[nH]2)CC1`, the cell number change came to 5.13%.
